Results are given in words; binding and its absence hold for the method and conditions named. Binding seen in cells or lysates may run through a third protein. A yes stands for co-enrichment or nearness to the bait. Other partners may have been found.
Target: T1, recombinant human IL4I1 (interleukin four-induced gene 1), conjugated to TriCEPS (human) (UniProt Q96RQ9)
T1 sequence (chain, conjugated to LRC-TriCEPS-biotin (LRC-TriCEPS V.3)): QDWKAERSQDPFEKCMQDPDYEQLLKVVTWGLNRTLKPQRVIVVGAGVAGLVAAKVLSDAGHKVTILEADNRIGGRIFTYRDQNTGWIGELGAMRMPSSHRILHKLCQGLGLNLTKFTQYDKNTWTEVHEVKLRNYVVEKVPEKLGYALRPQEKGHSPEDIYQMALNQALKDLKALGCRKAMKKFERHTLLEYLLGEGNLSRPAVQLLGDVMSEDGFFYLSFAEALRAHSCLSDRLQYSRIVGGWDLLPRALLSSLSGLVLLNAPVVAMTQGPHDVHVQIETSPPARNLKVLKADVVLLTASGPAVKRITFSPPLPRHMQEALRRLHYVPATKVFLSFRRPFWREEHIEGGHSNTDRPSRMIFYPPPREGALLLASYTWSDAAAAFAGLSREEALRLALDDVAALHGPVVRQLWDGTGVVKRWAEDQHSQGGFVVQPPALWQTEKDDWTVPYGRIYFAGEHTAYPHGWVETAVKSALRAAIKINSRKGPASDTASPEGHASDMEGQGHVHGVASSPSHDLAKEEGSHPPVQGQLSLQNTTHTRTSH
Experiment: affinity purification with mass spectrometry; ligand receptor capture (LRC-TriCEPS): Jurkat cells oxidised with 1.5 mM sodium metaperiodate at 4°C, incubated 90 min with TriCEPS-rhIL4I1 (control TriCEPS-transferrin), cross-linked to the cell surface, lysed, LC-MS; only the target purified

By UniProt entry, the sequences of proteins in these tests, tags left out.
UniProt Q9BYE2: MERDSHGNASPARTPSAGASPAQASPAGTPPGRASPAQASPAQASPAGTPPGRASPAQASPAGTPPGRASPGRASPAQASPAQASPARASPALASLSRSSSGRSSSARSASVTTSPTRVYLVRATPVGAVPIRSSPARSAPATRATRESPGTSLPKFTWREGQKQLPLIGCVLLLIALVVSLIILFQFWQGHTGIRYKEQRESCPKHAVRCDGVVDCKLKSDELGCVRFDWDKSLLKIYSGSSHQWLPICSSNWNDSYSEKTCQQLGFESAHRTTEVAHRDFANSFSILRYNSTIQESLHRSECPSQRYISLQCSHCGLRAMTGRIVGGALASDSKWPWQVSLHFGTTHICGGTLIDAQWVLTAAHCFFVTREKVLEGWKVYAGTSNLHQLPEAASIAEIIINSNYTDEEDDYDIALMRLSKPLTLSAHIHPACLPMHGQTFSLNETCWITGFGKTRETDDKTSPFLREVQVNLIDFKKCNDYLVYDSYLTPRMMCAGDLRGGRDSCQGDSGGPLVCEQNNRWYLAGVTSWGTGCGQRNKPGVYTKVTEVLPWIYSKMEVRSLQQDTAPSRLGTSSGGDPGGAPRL

TMPRSS13 endogenous on Jurkat cells (from UniProt Q9BYE2 1-586) (enzyme)
binding: binds
